Hit rate of the full screen: of about 310,000 compounds, about 17,000 (5.5%) were called active. The inconclusive results got no clear call from the source; some entries with a clear call stand among them for comparison. The call rests on the fitted dose curve; in most records, active means well fitted inhibition curve with a large enough effect; inconclusive means small, poorly fitted or top-dose-only effect, or effect the other way; inactive means no such curve, though single readings can be large or run the other way. Potencies of inconclusive entries are doubtful fits and often do not repeat.
Each compound was assayed against Nuclear receptor ROR-gamma (Mus musculus) (UniProt P51450) (assay: qHTS for inhibitors of ROR gamma transcriptional activity). Details: Drosophila S2 Gal4-RORgamma UAS-luciferase reporter, 20 h; activity change, negative = inhibition: at 53.6 µM (top of the series).
Summary of the method: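 Using a luciferase readout, inhibitors were identified by reduced reporter activity in Drosophila cells coexpressing a copper-inducible Gal4–ROR gamma fusion and UAS-driven Photinus luciferase, incubated 20 hr after 700 uM copper sulfate.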
Further: nearly all actives have a fitted effect of over 60% in size.
On the % scale 0 is the no-effect control and ±100 the full control effect; potency means the concentration at half of the fitted maximal effect.

By UniProt entry, the sequences of proteins in these tests, tags left out. Where a name states a change or a piece, a line headed by the entry shows the natural chain unless it says otherwise.
UniProt P51450: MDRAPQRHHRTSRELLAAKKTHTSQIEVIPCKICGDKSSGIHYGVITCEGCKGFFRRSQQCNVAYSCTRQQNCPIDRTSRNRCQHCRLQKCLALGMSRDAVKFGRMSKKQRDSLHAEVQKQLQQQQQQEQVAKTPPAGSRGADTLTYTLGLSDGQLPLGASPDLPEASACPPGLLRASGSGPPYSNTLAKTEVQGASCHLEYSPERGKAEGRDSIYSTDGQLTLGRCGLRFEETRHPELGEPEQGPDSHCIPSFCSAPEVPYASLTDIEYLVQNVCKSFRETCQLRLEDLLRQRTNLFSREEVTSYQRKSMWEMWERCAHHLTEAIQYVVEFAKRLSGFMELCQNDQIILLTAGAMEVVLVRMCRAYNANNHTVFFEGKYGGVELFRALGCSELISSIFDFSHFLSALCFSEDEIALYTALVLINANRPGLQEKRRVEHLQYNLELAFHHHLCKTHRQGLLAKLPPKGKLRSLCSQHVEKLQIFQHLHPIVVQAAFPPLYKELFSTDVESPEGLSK

Activity change, negative = inhibition, inactive:
COc1cccc(NC(=O)C(Sc2nnc3ccccn23)c2ccccc2)c1 (stereo not drawn) -7.46%, CCOC(=O)c1c(C)c(C(=O)N2CCN(C(=O)c3ccco3)CC2)c(C)n1C -2.79%, CCCc1cc(=O)oc2c(CN3CCN(C)CC3)c(O)ccc12 8.37%, COCCN1CCC(CNCc2cn[nH]c2-c2ccc(C)c(C)c2)C1 (stereo not drawn) -7.72%, NS(=O)(=O)c1cccc(NC(=O)COC(=O)C2(c3cccc(F)c3)CCCC2)c1 -6.23%, Cc1ccc(S(=O)(=O)N2CCN(C(=O)N3CCOCC3)C2C)cc1 (stereo not drawn) 0%, COc1ccc(CN2CCN(C(=O)CC(C)C)CC2)c(OC)c1OC -1.02%, Cc1ccc(CSCC(=O)Nc2ccccc2F)cc1 14.2%, O=C(COC(=O)Cc1ccc(Br)cc1)NCc1ccc(F)cc1 5.71%, O=C(Nc1ccc(F)cc1F)N1CCN(C/C=C/c2ccccc2)CC1 35.7%, COC(=O)c1cc(NC(=O)CN(c2ccccc2OC)S(=O)(=O)c2ccccc2)ccc1Cl 14.4%, CCN(CC)C(=O)N1CCN(S(=O)(=O)c2c(C)cc(C)cc2C)CC1 -2.9%, COc1cc(OC)cc(C(=O)NC(C)CNc2ccc(Cl)cc2[N+](=O)[O-])c1 (stereo not drawn) 16.5%, CCOc1cc(C=C2C(=O)c3ccccc3C2=O)ccc1OCC(=O)Nc1ccc(C)cc1 -25.4%, COc1ccc(-c2noc(C3CCCN(C(=O)c4c(F)cccc4F)C3)n2)cc1OC (stereo not drawn) -7.52% [at 1.91 µM], CC(CCn1cccn1)NC(=O)c1cc(COc2ccc(F)cc2Cl)on1 (stereo not drawn) 20%, O=C(c1ccc(C(F)(F)F)cc1)C1CCCN(C(=O)Cn2cncn2)C1 (stereo not drawn) -0.769%, CCC(C)C(NC(N)=O)C(=O)Nc1ccc(C(=O)OC)cc1 (stereo not drawn) 4.46%, CCOC(=O)c1cc(-c2ccc(N3CCOCC3)cc2)nn1-c1ccc(F)cc1F 4.95%, CNc1nc(-c2cccnc2)nc2ccccc12 4.43%, CCOc1ccc(C(=O)NCC(=O)Nc2ccc(N3CCOCC3)cc2)cc1OCC 12.9%, CC(=O)NN1C(=O)c2ccccc2NC1c1ccc([N+](=O)[O-])o1 (stereo not drawn) -38.1%, CCN1CCN(c2nc3c(C)cccn3c(=O)c2/C=C(\C#N)C(=O)NCCOC)CC1 3.11%, COC(=O)[C@@H]1C[C@@H]2CC[C@@H](O)C[C@@H]2N1Cc1ccc(-c2ccccc2)cc1 0.978%, O=C(CSc1ccc(-c2ccc(Br)cc2)nn1)NC1CCCC1 -12.9%, COCC(=O)Nc1c(I)c(C(=O)NC[C@@H](O)CO)c(I)c(C(=O)N(C)C[C@@H](O)CO)c1I 21.9% [at 2.98 µM], COc1ccccc1NC(=O)C1CCN(C(=O)NCc2ccccc2)CC1 -7.86%

Potency, inconclusive:
CN(C)C(=O)c1cc(C(=O)c2ccc(Cl)cc2Cl)c[nH]1 12.6 µM [activator, partial curve], O=C(Nc1ccc(-c2csc(-c3ccccc3)n2)cc1)c1ccccc1 14.1 µM [inhibitor, single point], O=C(OCCN1C(=O)c2cccc3c(N4CCOCC4)ccc(c23)C1=O)c1ccccc1Cl 31.6 µM [activator, single point], COc1ccc(C(C[N+](=O)[O-])c2c(-c3ccccc3)cc3ccccn23)c(OC)c1 (stereo not drawn) 35.5 µM [inhibitor, single point], C/C(CC1CC(C)(C)OC1=O)=N/Nc1nc(-c2ccccc2)cs1 (stereo not drawn) 2.82 µM [inhibitor, single point], CC(c1ccco1)N(C(=O)c1ccc(Cl)s1)c1ccccn1 (stereo not drawn) 20 µM [activator, single point], CC1CCN(C(=O)c2ccc(CSc3ccc(Cl)cc3)cc2)CC1 35.5 µM [activator, single point], Cc1ccc2c(c1)nnn2C1CCN(S(=O)(=O)c2ccc3ccccc3c2)CC1 10 µM [activator, single point], Cc1cc(C)cc(OCC(=O)Nc2ccc(F)cc2)c1 35.5 µM [activator, single point], CC(C)(CCO)NC(=S)NC1CC2C=CC1C2 (stereo not drawn) 10 µM [inhibitor, partial curve, poor fit], CCCOc1ccccc1/C=C(\C#N)C(=O)Nc1cccnc1 12.6 µM [inhibitor, partial curve, poor fit], COc1cccc(NS(=O)(=O)c2ccc3c(c2)NC(=O)C(C)S3)c1 (stereo not drawn) 20 µM [activator, single point], Cc1cc(OCC(F)(F)C(F)(F)C(F)(F)C(F)(F)C(F)(F)C(F)F)nc(N)n1 28.2 µM [activator, single point], Cc1nn(C)cc1C(C)NC(=O)c1cc(COc2cccc3cnccc23)on1 (stereo not drawn) 20 µM [activator, single point], COc1ccc(C(c2nnnn2Cc2cccs2)N2CCN(c3ccccc3F)CC2)cc1 (stereo not drawn) 22.4 µM [inhibitor, single point], Cn1c(NN)nc2sc3c(c2c1=O)CCC3 35.5 µM [inhibitor, single point], Cc1cc(C)cc(NS(=O)(=O)c2cnc(Cl)c(Cl)c2)c1 11.2 µM [inhibitor, partial curve, poor fit], Cc1ccc(-c2nnc(Nc3ccc4c(c3)OCO4)c3ccccc23)cc1S(=O)(=O)NCCO 15.8 µM [activator, single point], COCCn1c(=S)[nH]c2cc(OC)c(OC)cc2c1=O 22.4 µM [inhibitor, single point], Cc1ccc(Nc2nc(CSc3nnc(-c4ccccc4C)n3C)cs2)cc1 35.5 µM [inhibitor, single point], O=C(O)c1cc(S(=O)(=O)Nc2ccc3c(c2)OCCO3)c(Cl)cc1Cl 35.5 µM [inhibitor, single point], Cc1ccc(S(=O)(=O)N2CCN(c3ccnc4cc(Cl)ccc34)CC2)cc1 3.16 µM [inhibitor, single point], CC(C)c1nnc(NC(=O)C2CC(=O)N(CCc3ccc(F)cc3)C2)s1 (stereo not drawn) 20 µM [activator, partial curve, poor fit], CN(C(=O)/C=C/c1ccc([N+](=O)[O-])s1)c1ccccc1 35.5 µM [inhibitor, single point], COc1ccccc1C1C(C(C)=O)=C(O)C(=O)N1CCc1ccccc1 (stereo not drawn) 3.55 µM [activator, full curve], CC(=O)Nc1ccc(SCC(=O)Nc2ccccc2Oc2ccccc2)cc1 35.5 µM [activator, single point], NC(=O)COc1ccc2oc(-c3ccccc3)cc(=O)c2c1 14.1 µM [inhibitor, partial curve], CCOC(=O)CNc1nc(Cl)nc(Nc2ccc(Cl)cc2)n1 4.47 µM [inhibitor, partial curve, poor fit], c1ccc(CCc2ccccc2-c2nc(-c3cccnc3)no2)cc1 3.16 µM [activator, single point], COC(=O)CC1C(=O)NCCN1C(=S)Nc1cc(C)cc(C)c1 (stereo not drawn) 35.5 µM [inhibitor, single point], Cc1cccc(NC(=O)CSc2nnc(CNC(=O)c3ccc(S(=O)(=O)N(C)C)cc3)n2-c2cccc(C)c2)c1 17.8 µM [activator, single point], O=C1c2cccc3c([N+](=O)[O-])ccc(c23)C(=O)N1O 35.5 µM [inhibitor, single point], Cc1ccc(CN2CCN(Cc3cccc(-n4cccn4)c3)CC2CCO)cc1 (stereo not drawn) 20 µM [activator, single point], COc1cc(OC)cc(C(=O)NC(=S)Nc2ccc3c4c(cccc24)CC3)c1 1.58 µM [inhibitor, full curve, poor fit], NC(=O)c1c(NC(=O)CN2CCCC2)sc2c1CCCC2 35.5 µM [activator, single point], Cc1cc(C)n2nc(C(=O)Nc3ccc4c(c3)OCO4)cc2n1 14.1 µM [inhibitor, single point], Oc1c(Br)cc(Br)c(/C=N/n2c(-c3ccccc3)n[nH]c2=S)c1Br 28.2 µM [activator, single point], Cc1cc(F)ccc1S(=O)(=O)Nc1nc2ccccc2nc1Cl 3.98 µM [activator, full curve, poor fit], CC(C)c1ccc(C2NC(=S)NC3=C2C(=O)CC(C)(C)C3)cc1 (stereo not drawn) 15.8 µM [inhibitor, single point], CN1CCc2c(sc(NC(=O)c3ccc(S(=O)(=O)N4CCCCCC4)cc3)c2C(N)=O)C1 35.5 µM [inhibitor, single point], COc1ccc(-c2[nH]ncc2-c2cscn2)c(O)c1 12.6 µM [inhibitor, single point]

Potency, active:
Cc1c(Cl)cccc1NC(=S)Nc1ccccn1 1 µM, COc1ccc(N2CCC(CNC(=S)Nc3cccc(OC)c3)C2)cc1 (stereo not drawn) 3.16 µM, O=C(CO/N=C/c1ccccc1O)NNC(=O)c1ccccc1Cl 20 µM, Cc1cccc(NC(=O)COc2ccc(Br)cc2/C=N/O)c1 5.62 µM, O=C(NCCc1ccc(O)cc1)c1ccc(Cl)cc1 1.58 µM
